US10358463B2, “Immunomodulators” (BRISTOL-MYERS SQUIBB COMPANY, priority 2016, dated 2019)
At least one structure is not confirmed: it was looked up by name or label, or the drawing left a doubt. Numbered stars: 1 amine (or outer) side, 2 acyl side, 3 side chain; on linkers, the order of the positions; unused ones are H or OH. Bridge positions count the residues as written; N and C are the ends. Square brackets hold non-standard residues; d marks the D form. Peptide text beside a SMILES is read from it. X3 = COc1cc2c(C[C@H](N[*:1])C(=O)[*:2])c[nH]c2cn1; Hyp = O=C(O)[C@@H]1C[C@@H](O)CN1; NMeNle = CCCC[C@H](NC)C(=O)O; NMeA = CN[C@@H](C)C(=O)O

The chains behind the UniProt entries cited, without tags or fusion partners. A line that says so, or that is headed by a name, gives the form on record, which may keep a tag or linker.
UniProt Q9NZQ7, with tags, fused parts or gaps: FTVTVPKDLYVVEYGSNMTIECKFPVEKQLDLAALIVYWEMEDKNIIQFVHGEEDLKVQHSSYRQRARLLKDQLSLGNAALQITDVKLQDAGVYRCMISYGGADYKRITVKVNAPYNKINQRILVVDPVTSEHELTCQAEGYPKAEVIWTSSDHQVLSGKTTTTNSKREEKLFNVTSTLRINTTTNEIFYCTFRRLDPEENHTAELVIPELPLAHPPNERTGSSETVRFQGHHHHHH

Target: T1, PD-1-Ig binding to PD-L1-TVMV-His (PD-L1-His) (Homo sapiens, UniProt Q9NZQ7)
T1 construct: hPDL1 (19-239)-TVMV-His; TVMV protease cleavage site (C); made in house; host or cells: HEK293T cells
Assay: PD-1/PD-L1 Homogenous Time-Resolved Fluorescence (HTRF) binding assay
Conditions: PD-1-Ig (20 nM)/PD-L1-His (10 nM); range class
From the text: The ability of the macrocyclic peptides of the present disclosure to bind to PD-L1 was investigated using a PD-1/PD-L1 Homogenous Time-Resolved Fluorescence (HTRF) binding assay.
Homogenous Time-Resolved Fluorescence (HTRF) Assays of Binding of Soluble PD-1 to Soluble PD-L1. Soluble PD-1 and soluble PD-L1 refers to proteins with carboxyl-end truncations that remove the transmembrane-spanning regions and are fused to heterologous sequences, specifically the Fc portion of the human immunoglobuling G sequence (Ig) or the hexahistidine epitope tag (His). All binding studies were performed in an HTRF assay buffer consisting of dPBS supplemented with 0.1% (w/v) bovine serum albumin and 0.05% (v/v) Tween-20. For the PD-1-Ig/PD-L1-His binding assay, inhibitors were pre-incubated with PD-L1-His (10 nM final) for 15 m in 4 μl of assay buffer, followed by addition of PD-1-Ig (20 nM final) in 1 μl of assay buffer and further incubation for 15 m. PD-L1 fusion proteins from either human, cynomologous macaques, mouse, or other species were used. HTRF detection was achieved using europium crypate-labeled anti-Ig monoclonal antibody (1 nM final) and allophycocyanin (APC) labeled anti-His monoclonal antibody (20 nM final). Antibodies were diluted in HTRF detection buffer and 5 μl was dispensed on top of binding reaction. […]

CCCC[C@H]1C(=O)N(C)[C@@H](CCCC)C(=O)N[C@@H](C)C(=O)N[C@H](C(=O)NCC(N)=O)CSCC(=O)N[C@@H](Cc2ccc(O)cc2)C(=O)N(C)[C@@H](C)C(=O)N[C@@H](CC(N)=O)C(=O)N2CCC[C@H]2C(=O)N[C@@H](Cc2c[nH]cn2)C(=O)N[C@@H](CCC(N)=O)C(=O)N2C[C@H](O)C[C@H]2C(=O)N[C@@H](Cc2c[nH]c3ccccc23)C(=O)N[C@@H](CO)C(=O)N[C@@H](Cc2c[nH]c3cnc(OC)cc23)C(=O)N1C [Example 1287] ({CH2CO}-Y[NMeA]NPHQ[Hyp]WS[X3][NMeNle][NMeNle]ACG-NH2; thioether N-14)
IC50: 10 to 99 nM
